Measurements reported in US20090306228A1, “ACTIVE AGENT DELIVERY SYSTEMS AND METHODS FOR PROTECTING AND ADMINISTERING ACTIVE AGENTS” (priority 2000, published 2009).

Experiment: in vivo
Details: female, Sprague Dawley, rat, po

AUC: 21200 ng·h/mL
Structure (SMILES): NS(=O)(=O)c1cc(C(=O)O)c(NCc2ccco2)cc1Cl [Furosemide]
